Experimental data: PubChem BioAssay AID686943 (Drosophila RNAi Screening Center, 2013)
Screen: 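Search across the genome for regulators of signalling from receptor tyrosine kinase to ERK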 (primary screen). Cell system: Drosophila S2R+ haemocyte-like cells expressing YFP-tagged ERK (Rolled). Reagent: long dsRNA against Drosophila genes. Challenge: insulin stimulation versus unstimulated cells; dose and duration not given. Detection: 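Antibody staining for doubly phosphorylated ERK divided by ERK-YFP signal, as plate z-scores, in insulin-treated and untreated cells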. Scale: replicate 1, z-score of dpERK with insulin and replicate 2, z-score of dpERK with insulin: higher = more active ERK per ERK-YFP after insulin.
In all, the deposit lists about 23,000 reagents; shown is a random part of those with a known target gene and a result. 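Extra replicates exist only for a retested subset of genes; insulin dose and duration not given; both raised and lowered dpERK matter.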 The numbers tell different reagents against one gene apart. Names joined by + are all predicted targets of the reagent. Not all columns of the deposit are shown. Not stated in the record: the amount of reagent, the time to read-out.

{"target": "CG15233", "reagent": 1, "replicate 1, z-score of dpERK with insulin": -0.07, "replicate 2, z-score of dpERK with insulin": -0.04}
{"target": "Stoml2", "reagent": 1, "replicate 1, z-score of dpERK with insulin": 0, "replicate 2, z-score of dpERK with insulin": -0.36}
{"target": "CG2772", "reagent": 1, "replicate 1, z-score of dpERK with insulin": -0.02, "replicate 2, z-score of dpERK with insulin": -0.06}
{"target": "tx", "reagent": 1, "replicate 1, z-score of dpERK with insulin": -0.28, "replicate 2, z-score of dpERK with insulin": 0.57}
{"target": "Ass + CG31286", "reagent": 1, "replicate 1, z-score of dpERK with insulin": -0.93, "replicate 2, z-score of dpERK with insulin": -0.97}
{"target": "CG44837", "reagent": 1, "replicate 1, z-score of dpERK with insulin": -0.96, "replicate 2, z-score of dpERK with insulin": -2.11}
{"target": "CG44837", "reagent": 2, "replicate 1, z-score of dpERK with insulin": -0.35, "replicate 2, z-score of dpERK with insulin": -0.5}
{"target": "Cpr65Eb", "reagent": 1, "replicate 1, z-score of dpERK with insulin": 0.78, "replicate 2, z-score of dpERK with insulin": 1.45}
{"target": "CG33109", "reagent": 1, "replicate 1, z-score of dpERK with insulin": -0.17, "replicate 2, z-score of dpERK with insulin": -1.64}
{"target": "CG43333", "reagent": 1, "replicate 1, z-score of dpERK with insulin": 0.42, "replicate 2, z-score of dpERK with insulin": 1.6}
{"target": "Lrch", "reagent": 1, "replicate 1, z-score of dpERK with insulin": 0.77, "replicate 2, z-score of dpERK with insulin": 0.72}
{"target": "CG42580", "reagent": 1, "replicate 1, z-score of dpERK with insulin": 0.32, "replicate 2, z-score of dpERK with insulin": -0.81}
